No constants are given. Whether binding was seen depends on the method and setting.

By UniProt entry, the sequences of proteins in these tests, tags left out. Residues count along the entry.
UniProt Q99P84, residues 1284-2098: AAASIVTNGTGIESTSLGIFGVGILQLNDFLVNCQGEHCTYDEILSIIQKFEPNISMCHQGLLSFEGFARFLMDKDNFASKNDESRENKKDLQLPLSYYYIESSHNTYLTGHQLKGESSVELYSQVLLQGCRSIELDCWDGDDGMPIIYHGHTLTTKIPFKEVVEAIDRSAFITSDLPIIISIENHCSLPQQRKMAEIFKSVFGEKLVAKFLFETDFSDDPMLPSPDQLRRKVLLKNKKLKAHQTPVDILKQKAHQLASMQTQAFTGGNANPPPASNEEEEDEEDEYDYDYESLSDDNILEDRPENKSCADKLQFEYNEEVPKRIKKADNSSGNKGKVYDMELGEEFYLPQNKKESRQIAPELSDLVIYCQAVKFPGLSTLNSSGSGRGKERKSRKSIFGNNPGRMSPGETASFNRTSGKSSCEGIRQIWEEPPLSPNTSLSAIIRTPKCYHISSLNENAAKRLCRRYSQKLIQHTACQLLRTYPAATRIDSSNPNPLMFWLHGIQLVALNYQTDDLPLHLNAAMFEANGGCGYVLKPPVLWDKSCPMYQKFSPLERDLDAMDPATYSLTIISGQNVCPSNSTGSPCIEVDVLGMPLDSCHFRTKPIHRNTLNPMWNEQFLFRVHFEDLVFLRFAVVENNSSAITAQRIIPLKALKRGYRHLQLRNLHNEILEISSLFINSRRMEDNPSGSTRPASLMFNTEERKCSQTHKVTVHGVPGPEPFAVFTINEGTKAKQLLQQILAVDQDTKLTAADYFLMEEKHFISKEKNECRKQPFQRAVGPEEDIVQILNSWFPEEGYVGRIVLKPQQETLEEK

The values below come from PMC7427993.

The target of assay [1] is PLCε EF3-RA1 (phospholipase Cε, R. norvegicus, residues 1284–2098), as used for SEC-SAXS (R. norvegicus) (UniProt Q99P84). The assay can be described thus: SEC + other: SAXS; SEC-SAXS; Superdex 200 Increase 10/300 GL; EF3-RA1 at 2–3 mg/mL in S200 buffer (50 mM Tris-Cl pH 7.5, 200 mM NaCl, 2 mM DTT, 0.1 mM EDTA, 0.1 mM EGTA); both purified.
In assay [2] the target is PLCε EF3-RA1 (phospholipase Cε, R. norvegicus, residues 1284–2098), TEV-cleaved, as crystallised (R. norvegicus) (UniProt Q99P84). In words: crystal structure; 2.7 Å; four copies in the asymmetric unit arranged as two nearly identical dimers; the αX–Y helix packs against EF3/4 of the same chain in an adjacent unit cell; crystals from 100 mM MES pH 5.8, 0.2 M NaCl, 6.5% PEG 8000, 12 °C, equimolar CaCl2; both purified.

For “PLCε EF3-RA1 (phospholipase Cε, R. norvegicus, residues 1284–2098), as used for SEC-SAXS (from UniProt Q99P84 1284-2098) (domain or fragment)”, the binding entry in assay [1] is listed as “no binding (tested: 2–3 mg/mL)”.

With “PLCε EF3-RA1 (phospholipase Cε, R. norvegicus, residues 1284–2098), TEV-cleaved, as crystallised (from UniProt Q99P84 1284-2098) (domain or fragment)”, the binding result in assay [2] is “no binding”.
